# Results reported in the supplement of paper PMC4683952.
# Where a name gives a salt, the structure may show the parent alone. This is one part of the list. Cut-off read from the data, not from the text of the source: active = 2.5 or more and inactive = the rest. This data set is noisy: repeats of one test often differ as much as different tests do.
# System: Lgr5 (MarsCy1-Lgr5-EGFP, U2OS)
# Assay: cell-surface Lgr5 expression (SCi1 fluorescence, background-subtracted) relative to WT control (fold of WT control); higher = more Lgr5 at the plasma membrane
# Details: U2OS MarsCy1-Lgr5-EGFP stable; treatment time: overnight; library: Prestwick; 20 µM
row,Structure (SMILES),cell-surface Lgr5 expression
1,CCN(CC)C(=O)N1CCN(C)CC1 [Diethylcarbamazine citrate],inactive: 1.8
2,"O=C(O)Cc1cc(I)c(Oc2ccc(O)c(I)c2)c(I)c1 [Tiratricol, 3,3',5-triiodothyroacetic acid]",active: 2.78
3,O=C(CCCCC(=O)Nc1c(I)cc(I)c(C(=O)O)c1I)Nc1c(I)cc(I)c(C(=O)O)c1I [Iodipamide],inactive: 1.54
4,CCCCOC(=O)c1ccc(O)cc1 [Butylparaben],inactive: 1.97
5,CC1=CC(=O)c2ccccc2C1=O [Menadione],inactive: 1.85
6,CC(=O)/N=c1/sc(S(N)(=O)=O)nn1C [Methazolamide],inactive: 1.74
7,N=C(N)N1CCc2ccccc2C1 [Debrisoquin sulfate],inactive: 1.6
8,CCCC(=O)Nc1ccc(OCC(O)CNC(C)C)c(C(C)=O)c1 (centres undefined) [Acebutolol hydrochloride],inactive: 1.91
9,CC(=O)Nc1ccc(OCC(O)CNC(C)C)cc1 (centres undefined) [Practolol],inactive: 1.63
10,O=C(Nc1ccccc1)OCC(CN1CCCCC1)OC(=O)Nc1ccccc1 (centres undefined) [Diperodon hydrochloride],inactive: 1.03
11,C[C@@H]1O[C@@H](O[C@H]2[C@H](Oc3cc(O)c4c(c3)O[C@H](c3ccc(O)cc3)CC4=O)O[C@H](CO)[C@@H](O)[C@@H]2O)[C@H](O)[C@H](O)[C@H]1O [Naringin hydrate],inactive: 0.926
12,N=C(N=C(N)N)N1CCOCC1 [Moroxidine hydrochloride],inactive: 1.18
13,Nc1nc(=O)[nH]cc1F [Flucytosine],inactive: 1.56
14,Cc1cccc(C)c1NC(=O)CN1CCN(CCCC(c2ccc(F)cc2)c2ccc(F)cc2)CC1 [Lidoflazine],inactive: 0.71
15,CC(=O)O[C@]1(C(C)=O)CC[C@H]2[C@@H]3C=C(C)C4=CC(=O)CC[C@]4(C)[C@H]3CC[C@@]21C [Megestrol acetate],active: 3.04
16,"O=C1C(O)=C(O)C(=O)C(O)=C1O [Tetrahydroxy-1,4-quinone monohydrate]",inactive: 0.272
17,Cc1nccn1CC1CCc2c(c3ccccc3n2C)C1=O (centres undefined) [Ondansetron Hydrochloride],inactive: 1.23
18,NC(=O)c1cc[n+](CC2=C(C(=O)[O-])N3C(=O)[C@@H](NC(=O)Cc4cccs4)[C@H]3SC2)cc1 [Cefalonium],inactive: 0.71
19,COc1ccc2c(c1)c(CC(=O)OCC(=O)O)c(C)n2C(=O)c1ccc(Cl)cc1 [Acemetacin],inactive: 1.3
20,COc1ccc2cc3[n+](cc2c1OC)CCc1cc2c(cc1-3)OCO2 [Berberine chloride],inactive: 1.87
21,CC(C)(C)NCC(O)COc1cccc2c1CC(O)C(O)C2 (centres undefined) [Nadolol],inactive: 2.32
22,CC1=C(C(=O)O)N2C(=O)[C@@H](NC(=O)[C@H](N)c3ccccc3)[C@H]2SC1 [Cephalexin monohydrate],inactive: 1.98

# Reprinted from above (10 entries):
row,Structure (SMILES),cell-surface Lgr5 expression
12,N=C(N=C(N)N)N1CCOCC1 [Moroxidine hydrochloride],inactive: 1.18
13,Nc1nc(=O)[nH]cc1F [Flucytosine],inactive: 1.56
14,Cc1cccc(C)c1NC(=O)CN1CCN(CCCC(c2ccc(F)cc2)c2ccc(F)cc2)CC1 [Lidoflazine],inactive: 0.71
15,CC(=O)O[C@]1(C(C)=O)CC[C@H]2[C@@H]3C=C(C)C4=CC(=O)CC[C@]4(C)[C@H]3CC[C@@]21C [Megestrol acetate],active: 3.04
16,"O=C1C(O)=C(O)C(=O)C(O)=C1O [Tetrahydroxy-1,4-quinone monohydrate]",inactive: 0.272
17,Cc1nccn1CC1CCc2c(c3ccccc3n2C)C1=O (centres undefined) [Ondansetron Hydrochloride],inactive: 1.23
18,NC(=O)c1cc[n+](CC2=C(C(=O)[O-])N3C(=O)[C@@H](NC(=O)Cc4cccs4)[C@H]3SC2)cc1 [Cefalonium],inactive: 0.71
19,COc1ccc2c(c1)c(CC(=O)OCC(=O)O)c(C)n2C(=O)c1ccc(Cl)cc1 [Acemetacin],inactive: 1.3
20,COc1ccc2cc3[n+](cc2c1OC)CCc1cc2c(cc1-3)OCO2 [Berberine chloride],inactive: 1.87
21,CC(C)(C)NCC(O)COc1cccc2c1CC(O)C(O)C2 (centres undefined) [Nadolol],inactive: 2.32

# The list goes on:

row,Structure (SMILES),cell-surface Lgr5 expression
1,COc1cc2ccc(=O)oc2cc1O [Scopoletin],inactive: 1.28
2,COc1cc(NS(=O)(=O)c2ccc(N)cc2)nc(OC)n1 [Sulfadimethoxine],inactive: 1.05
3,C=N[C@@H](C(=O)N[C@@H]1C(=O)N2[C@@H]1SC(C)(C)[C@@H]2C(=O)O)c1ccccc1 [Metampicillin sodium salt],inactive: 1.2
4,CC[N+](CC)(CC(=O)Nc1c(C)cccc1C)Cc1ccccc1 [Denatonium benzoate],inactive: 0.911
5,NCCC(=O)NCCc1c[nH]cn1 [Carcinine],inactive: 1.59
6,C[C@]12CC[C@H]3[C@@H](CCC4=CC(=O)CC[C@@]43C)[C@@H]1CC[C@@H]2C(=O)CO [Deoxycorticosterone],inactive: 2.16
7,Cc1cccc(Nc2ccncc2S(=O)(=O)NC(=O)NC(C)C)c1 [Torsemide],inactive: 1.32
8,CC(=O)CC(c1ccc([N+](=O)[O-])cc1)c1c(O)c2ccccc2oc1=O (centres undefined) [Acenocoumarol],inactive: 1.26
9,CCCCCCCCNC(C)C(O)c1ccc(SC(C)C)cc1 (centres undefined) [Suloctidil],inactive: 1.54
10,CC(C)NC(=N)NC(=N)Nc1ccc(Cl)cc1 [Proguanil hydrochloride],inactive: 1.01
11,COc1ccc2c3c1O[C@H]1C[C@@H](O)C=C[C@@]31CCN(C)C2 [Galanthamine hydrobromide],inactive: 1.64
12,Cc1nnc(SCC2=C(C(=O)O)N3C(=O)[C@@H](NC(=O)Cn4cnnn4)[C@H]3SC2)s1 [Cefazolin sodium salt],inactive: 1.81
13,O=c1[nH]c(=O)n([C@H]2C[C@H](O)[C@@H](CO)O2)cc1C(F)(F)F [Trifluridine],inactive: 0.948
14,CC1(C)S[C@@H]2[C@H](NC(=O)[C@H](N)c3ccccc3)C(=O)N2[C@H]1C(=O)OC1OC(=O)c2ccccc21 (some centres undefined) [Talampicillin hydrochloride],inactive: 0.777
15,NC(=O)OCC(O)COc1ccc(Cl)cc1 (centres undefined) [Chlorphensin carbamate],inactive: 0.651
16,CN1C(C(=O)Nc2ccccn2)=C(O)c2ccccc2S1(=O)=O [Piroxicam],inactive: 1.36
17,COCCOC(=O)C1=C(C)NC(C)=C(C(=O)OC(C)C)C1c1cccc([N+](=O)[O-])c1 (centres undefined) [Nimodipine],inactive: 1.39
18,"Oc1cc(O)c2c(c1)O[C@H](c1ccc(O)c(O)c1)[C@@H](O)C2 (racemic) [Catechin-(+,-) hydrate]",inactive: 2.33
19,Cc1ccc(C)c(OCCCC(C)(C)C(=O)O)c1 [Gemfibrozil],inactive: 1.93
20,O=C(CCCN1CCC(O)(c2ccc(Cl)cc2)CC1)c1ccc(F)cc1 [Haloperidol],inactive: 0.881
21,CNCCC=C1c2ccccc2C=Cc2ccccc21 [Norcyclobenzaprine],inactive: 1.33
22,NC(=O)c1ccc[n+]([C@@H]2O[C@H](COP(=O)([O-])OP(=O)(O)OC[C@H]3O[C@@H](n4cnc5c(N)ncnc54)[C@H](O)[C@@H]3O)[C@@H](O)[C@H]2O)c1 [Nadide],inactive: 1.59
